{"source": "patent US20070148703A1", "about": "“Method of screening remedy for breast cancer” (Genomembrane, Inc., priority 2003, published 2007)", "test_system": "T-47D cells", "test": "Uptake of estrone-3-sulfate by T-47D cells (time course, cation and concentration dependence)", "type": "cell-based, human", "conditions": "7.1 nM", "procedure": "Cultured T-47D cells were incubated at 37° C. over 35 min in medium containing [^3H] estrone-3-sulfate (7.1 nM) with (open circles) or without (closed circles) 1 mM unlabeled estrone-3-sulfate. Each value represents the mean±S.E.M. (n=4). When the error bars are not shown, they are smaller than the symbols.\nThe uptake rate of [^3H] estrone-3-sulfate (7.1 nM) for 10 min was measured in the presence or absence of extracellular Na^+. Extracellular Na^+ was replaced with K^+, Li^+, or N-methylglucamine^+ (NMG^+). Each value represents the mean±S.E.M. (n=4).\nThe uptake of estrone-3-sulfate at various concentrations, ranging from 5.1 nM to 50 μM, was measured at 37° C. for 10 min. […]\nTransport experiments were performed as described previously (Tamai et al., 2001). […] Then, the associated radioactivity was measured by means of a liquid scintillation counter using Clearsol-1 (Nacalai tesque) as a liquid scintillation fluid.\nCellular protein content was determined according to the method of Bradford by using a BioRad protein assay kit (Hercules) with bovine serum albumin as the standard (Bradford, 1976). […] All data were expressed as means±S.E.M., and statistical analysis was performed by the use of Student's t test with P<0.05 as the criterion of significance. […]", "data": [{"smiles": "C[C@]12CC[C@@H]3c4ccc(OS(=O)(=O)O)cc4CC[C@H]3[C@@H]1CCC2=O", "note": "[Estrone-3-sulfate]", "values": [{"measurement": "time course of [3H] estrone-3-sulfate uptake", "setting": "37° C.", "result": "increased linearly over 20 min"}, {"measurement": "[3H] estrone-3-sulfate uptake when Na+ replaced with K+, Li+ or N-methylglucamine+", "setting": "10 min", "result": "comparable to that in the presence of Na^+"}]}]}
